Source: the supplement of paper PMC10849652
The other results are listed elsewhere or left out.

Amino acid sequences for entries named in this document (tags omitted). A change or cut given only in a name is not applied to a line headed by its entry.
UniProt Q5SVZ6: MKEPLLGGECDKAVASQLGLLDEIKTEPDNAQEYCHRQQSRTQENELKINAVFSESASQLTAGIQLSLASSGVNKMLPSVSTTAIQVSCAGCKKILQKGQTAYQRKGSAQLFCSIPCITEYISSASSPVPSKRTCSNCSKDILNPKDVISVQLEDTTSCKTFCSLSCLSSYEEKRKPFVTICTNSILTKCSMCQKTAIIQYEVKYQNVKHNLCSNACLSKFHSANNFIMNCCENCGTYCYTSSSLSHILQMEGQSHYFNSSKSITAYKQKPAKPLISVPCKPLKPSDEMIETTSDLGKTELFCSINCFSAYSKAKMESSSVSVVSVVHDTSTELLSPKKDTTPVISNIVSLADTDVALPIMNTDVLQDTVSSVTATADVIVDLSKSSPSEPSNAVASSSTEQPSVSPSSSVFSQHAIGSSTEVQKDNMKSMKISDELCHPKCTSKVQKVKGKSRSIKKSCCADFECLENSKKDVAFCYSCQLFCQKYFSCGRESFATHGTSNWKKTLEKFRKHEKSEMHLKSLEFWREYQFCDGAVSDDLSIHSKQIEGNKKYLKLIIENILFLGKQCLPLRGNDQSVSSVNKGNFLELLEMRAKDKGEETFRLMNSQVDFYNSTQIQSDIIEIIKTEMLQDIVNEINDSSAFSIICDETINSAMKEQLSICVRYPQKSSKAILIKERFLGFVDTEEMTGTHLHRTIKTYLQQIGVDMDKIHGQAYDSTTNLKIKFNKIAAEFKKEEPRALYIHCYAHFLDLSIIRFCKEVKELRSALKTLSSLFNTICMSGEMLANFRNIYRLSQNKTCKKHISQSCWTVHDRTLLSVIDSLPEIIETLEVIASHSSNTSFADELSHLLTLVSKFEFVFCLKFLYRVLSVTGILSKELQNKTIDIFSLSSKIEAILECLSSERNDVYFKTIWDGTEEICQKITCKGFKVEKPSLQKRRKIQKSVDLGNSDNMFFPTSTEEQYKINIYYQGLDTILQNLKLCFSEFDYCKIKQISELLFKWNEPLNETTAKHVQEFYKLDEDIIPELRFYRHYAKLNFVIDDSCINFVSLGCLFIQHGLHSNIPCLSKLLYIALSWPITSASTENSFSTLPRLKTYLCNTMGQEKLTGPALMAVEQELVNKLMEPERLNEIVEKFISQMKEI
UniProt Q99676: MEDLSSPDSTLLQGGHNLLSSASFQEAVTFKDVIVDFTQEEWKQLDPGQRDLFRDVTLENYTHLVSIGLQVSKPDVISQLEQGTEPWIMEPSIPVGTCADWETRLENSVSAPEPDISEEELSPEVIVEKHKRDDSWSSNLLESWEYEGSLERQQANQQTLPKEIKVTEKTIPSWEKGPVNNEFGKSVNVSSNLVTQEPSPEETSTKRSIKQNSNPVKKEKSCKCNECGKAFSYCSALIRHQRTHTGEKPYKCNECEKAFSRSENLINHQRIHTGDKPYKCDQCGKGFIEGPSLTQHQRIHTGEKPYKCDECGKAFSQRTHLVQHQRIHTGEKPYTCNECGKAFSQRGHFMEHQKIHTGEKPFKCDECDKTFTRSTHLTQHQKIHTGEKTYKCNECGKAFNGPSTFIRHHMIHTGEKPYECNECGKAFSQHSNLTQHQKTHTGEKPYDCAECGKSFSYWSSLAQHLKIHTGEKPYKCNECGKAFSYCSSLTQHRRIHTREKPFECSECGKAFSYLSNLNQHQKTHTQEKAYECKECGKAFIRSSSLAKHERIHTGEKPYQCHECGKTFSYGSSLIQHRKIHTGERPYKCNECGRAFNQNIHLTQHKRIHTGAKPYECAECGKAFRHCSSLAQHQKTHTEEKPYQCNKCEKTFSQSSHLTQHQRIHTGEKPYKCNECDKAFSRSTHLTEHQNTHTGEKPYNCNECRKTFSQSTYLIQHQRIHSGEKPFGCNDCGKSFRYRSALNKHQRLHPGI
UniProt Q9H5H4: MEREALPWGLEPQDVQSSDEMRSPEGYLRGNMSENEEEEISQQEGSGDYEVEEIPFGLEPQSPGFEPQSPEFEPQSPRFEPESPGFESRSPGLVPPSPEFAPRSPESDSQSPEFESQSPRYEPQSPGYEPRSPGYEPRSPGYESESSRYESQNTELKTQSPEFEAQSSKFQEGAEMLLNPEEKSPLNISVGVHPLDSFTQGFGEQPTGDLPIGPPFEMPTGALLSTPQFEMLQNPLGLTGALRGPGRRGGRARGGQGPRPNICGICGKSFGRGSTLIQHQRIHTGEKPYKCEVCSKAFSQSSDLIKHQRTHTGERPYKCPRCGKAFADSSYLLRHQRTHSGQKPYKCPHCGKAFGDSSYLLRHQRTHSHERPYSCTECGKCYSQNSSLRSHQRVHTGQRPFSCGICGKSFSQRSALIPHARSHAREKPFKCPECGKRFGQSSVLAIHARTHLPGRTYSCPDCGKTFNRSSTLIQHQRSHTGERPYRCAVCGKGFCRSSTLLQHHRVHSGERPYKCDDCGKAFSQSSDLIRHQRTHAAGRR
UniProt O75312: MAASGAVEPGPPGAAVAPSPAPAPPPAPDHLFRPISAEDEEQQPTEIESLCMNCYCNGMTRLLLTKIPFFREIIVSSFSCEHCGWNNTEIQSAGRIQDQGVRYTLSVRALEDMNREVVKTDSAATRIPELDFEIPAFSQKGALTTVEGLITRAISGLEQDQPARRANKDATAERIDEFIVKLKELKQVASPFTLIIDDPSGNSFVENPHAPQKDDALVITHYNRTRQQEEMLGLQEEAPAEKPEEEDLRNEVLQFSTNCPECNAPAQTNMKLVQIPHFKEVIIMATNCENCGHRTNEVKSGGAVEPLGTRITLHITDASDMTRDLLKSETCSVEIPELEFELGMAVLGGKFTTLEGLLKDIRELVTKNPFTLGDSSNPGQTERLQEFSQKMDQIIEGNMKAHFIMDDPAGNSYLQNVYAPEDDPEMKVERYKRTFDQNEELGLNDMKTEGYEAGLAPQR
UniProt Q96ME7: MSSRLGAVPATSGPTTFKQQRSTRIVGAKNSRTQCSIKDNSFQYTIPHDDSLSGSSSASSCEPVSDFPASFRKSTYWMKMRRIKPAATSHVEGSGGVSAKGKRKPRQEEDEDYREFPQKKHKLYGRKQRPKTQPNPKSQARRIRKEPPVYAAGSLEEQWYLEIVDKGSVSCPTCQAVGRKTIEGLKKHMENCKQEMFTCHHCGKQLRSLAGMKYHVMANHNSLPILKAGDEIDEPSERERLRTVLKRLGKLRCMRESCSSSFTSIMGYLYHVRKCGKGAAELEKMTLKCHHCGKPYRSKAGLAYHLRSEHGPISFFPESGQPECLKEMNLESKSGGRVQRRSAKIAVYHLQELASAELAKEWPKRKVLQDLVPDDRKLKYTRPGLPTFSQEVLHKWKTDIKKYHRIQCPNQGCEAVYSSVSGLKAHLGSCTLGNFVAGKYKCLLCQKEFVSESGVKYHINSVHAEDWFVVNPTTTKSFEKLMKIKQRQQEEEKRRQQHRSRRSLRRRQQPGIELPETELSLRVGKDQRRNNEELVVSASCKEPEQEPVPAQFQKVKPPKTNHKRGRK
UniProt O75844: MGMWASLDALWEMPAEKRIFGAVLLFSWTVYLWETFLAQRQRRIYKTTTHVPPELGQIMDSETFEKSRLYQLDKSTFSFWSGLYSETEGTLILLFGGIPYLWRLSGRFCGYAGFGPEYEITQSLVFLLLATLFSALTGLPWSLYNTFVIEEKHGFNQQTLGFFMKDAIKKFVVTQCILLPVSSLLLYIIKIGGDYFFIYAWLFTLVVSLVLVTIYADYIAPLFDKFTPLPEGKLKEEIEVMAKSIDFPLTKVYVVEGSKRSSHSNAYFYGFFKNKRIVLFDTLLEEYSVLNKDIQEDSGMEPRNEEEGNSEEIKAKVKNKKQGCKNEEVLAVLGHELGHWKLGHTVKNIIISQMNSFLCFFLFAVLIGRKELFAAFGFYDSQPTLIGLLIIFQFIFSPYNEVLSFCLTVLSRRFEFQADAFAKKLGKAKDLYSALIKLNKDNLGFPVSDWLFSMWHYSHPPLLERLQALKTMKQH
UniProt O43670: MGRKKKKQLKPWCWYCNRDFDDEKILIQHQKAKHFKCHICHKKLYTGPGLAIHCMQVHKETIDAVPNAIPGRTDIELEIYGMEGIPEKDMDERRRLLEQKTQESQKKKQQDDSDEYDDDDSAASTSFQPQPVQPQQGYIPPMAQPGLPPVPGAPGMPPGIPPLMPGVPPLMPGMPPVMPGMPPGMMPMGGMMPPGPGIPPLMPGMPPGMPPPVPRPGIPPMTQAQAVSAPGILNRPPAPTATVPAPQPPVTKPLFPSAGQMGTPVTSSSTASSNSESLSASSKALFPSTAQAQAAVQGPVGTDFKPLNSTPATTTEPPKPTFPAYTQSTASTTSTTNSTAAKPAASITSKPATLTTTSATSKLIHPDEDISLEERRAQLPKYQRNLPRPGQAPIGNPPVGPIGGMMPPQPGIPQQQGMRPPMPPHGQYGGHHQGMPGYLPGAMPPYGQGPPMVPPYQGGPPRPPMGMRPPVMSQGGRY
UniProt Q9P2E3: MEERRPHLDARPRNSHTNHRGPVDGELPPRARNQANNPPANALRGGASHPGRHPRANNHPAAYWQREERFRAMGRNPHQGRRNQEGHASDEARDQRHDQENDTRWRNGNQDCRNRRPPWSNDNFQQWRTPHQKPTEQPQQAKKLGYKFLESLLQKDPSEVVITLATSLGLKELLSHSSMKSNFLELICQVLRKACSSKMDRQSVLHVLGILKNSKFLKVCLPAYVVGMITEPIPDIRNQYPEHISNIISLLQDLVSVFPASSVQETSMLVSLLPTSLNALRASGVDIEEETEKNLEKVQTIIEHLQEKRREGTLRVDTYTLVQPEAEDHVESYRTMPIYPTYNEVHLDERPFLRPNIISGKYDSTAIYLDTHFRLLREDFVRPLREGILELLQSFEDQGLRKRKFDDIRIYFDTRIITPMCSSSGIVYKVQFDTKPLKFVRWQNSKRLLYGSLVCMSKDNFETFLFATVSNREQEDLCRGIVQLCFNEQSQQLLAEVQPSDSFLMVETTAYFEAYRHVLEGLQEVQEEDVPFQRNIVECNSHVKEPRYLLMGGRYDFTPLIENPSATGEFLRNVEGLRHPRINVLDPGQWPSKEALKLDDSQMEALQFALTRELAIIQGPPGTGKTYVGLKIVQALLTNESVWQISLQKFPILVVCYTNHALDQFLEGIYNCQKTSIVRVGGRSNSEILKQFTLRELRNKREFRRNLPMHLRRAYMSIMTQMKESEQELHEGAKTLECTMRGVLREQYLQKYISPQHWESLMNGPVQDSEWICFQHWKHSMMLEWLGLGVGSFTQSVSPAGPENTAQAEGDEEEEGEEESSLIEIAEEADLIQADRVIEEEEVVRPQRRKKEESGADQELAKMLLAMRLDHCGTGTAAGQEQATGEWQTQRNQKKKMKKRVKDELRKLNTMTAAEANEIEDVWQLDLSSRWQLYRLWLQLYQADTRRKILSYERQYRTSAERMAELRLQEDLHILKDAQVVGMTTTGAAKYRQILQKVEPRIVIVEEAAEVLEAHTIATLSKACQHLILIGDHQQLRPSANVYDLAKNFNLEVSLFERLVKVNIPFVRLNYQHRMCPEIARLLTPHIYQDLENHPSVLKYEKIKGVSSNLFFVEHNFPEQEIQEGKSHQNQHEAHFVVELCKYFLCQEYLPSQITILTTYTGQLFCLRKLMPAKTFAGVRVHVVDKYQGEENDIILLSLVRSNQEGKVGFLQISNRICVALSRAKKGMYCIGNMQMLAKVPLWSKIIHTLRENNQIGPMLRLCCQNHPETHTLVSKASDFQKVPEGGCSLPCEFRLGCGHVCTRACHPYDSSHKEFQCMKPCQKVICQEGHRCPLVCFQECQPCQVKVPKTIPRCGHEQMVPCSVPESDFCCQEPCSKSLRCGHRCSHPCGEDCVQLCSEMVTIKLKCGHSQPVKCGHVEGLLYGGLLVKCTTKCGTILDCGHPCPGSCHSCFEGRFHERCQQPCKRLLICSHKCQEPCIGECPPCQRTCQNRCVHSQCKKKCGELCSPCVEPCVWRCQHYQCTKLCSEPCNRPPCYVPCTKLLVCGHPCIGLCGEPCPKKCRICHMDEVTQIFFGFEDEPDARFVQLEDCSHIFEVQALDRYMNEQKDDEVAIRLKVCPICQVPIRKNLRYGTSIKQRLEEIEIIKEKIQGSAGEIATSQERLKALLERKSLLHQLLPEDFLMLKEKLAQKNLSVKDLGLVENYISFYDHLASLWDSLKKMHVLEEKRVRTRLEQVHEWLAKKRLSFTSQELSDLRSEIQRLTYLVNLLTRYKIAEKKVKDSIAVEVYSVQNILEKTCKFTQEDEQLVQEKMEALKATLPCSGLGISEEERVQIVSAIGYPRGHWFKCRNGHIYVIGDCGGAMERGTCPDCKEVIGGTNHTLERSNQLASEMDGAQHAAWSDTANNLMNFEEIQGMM

Legend:
Assay in all cases: log2 fold change, soluble protein after heating vs DMSO (PISA); higher = thermal stabilisation; K562 lysate, 10 uM; active = over 0.2 and 3.5 SD of the protein, either way, in both replicates (recomputed)
nilotinib = compound: Cc1cn(-c2cc(NC(=O)c3ccc(C)c(Nc4nccc(-c5cccnc5)n4)c3)cc(C(F)(F)F)c2)cn1 [nilotinib]
How it was run: (§1)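 The values are log-two fold changes in thermal stability compared with solvent controls and come from duplicates. They were obtained by TMTpro 16plex LC-MS/MS, with channel sums equalised, on the supernatant after 21,000xg for 90 min. That supernatant came from crude K562 extract at 1 mg/mL protein treated with 10 μM compound for 30 min, heated for 3 min across 48°C-58°C, pooled and brought to 0.5% NP-40 at 4°C.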

[1] = compound: Cc1nc(Nc2n[nH]c3c2CN(C(=O)N[C@H](CN(C)C)c2ccccc2)C3(C)C)c2sccc2n1
How it was run: as §1

dasatinib = compound: Cc1nc(Nc2ncc(C(=O)Nc3c(C)cccc3Cl)s2)cc(N2CCN(CCO)CC2)n1 [dasatinib]
How it was run: as §1

[2] = compound: Cc1ncc(-c2ccnc(Nc3ccc(S(C)(=O)=O)cc3)n2)n1C(C)C
How it was run: as §1

[3] = compound: Cn1cc(-c2ccc3c(c2)CCN3C(=O)Cc2cccc(C(F)(F)F)c2)c2c(N)ncnc21
How it was run: as §1

quisinostat = compound: Cn1cc(CNCC2CCN(c3ncc(C(=O)NO)cn3)CC2)c2ccccc21 [quisinostat]
How it was run: as §1

tipifarnib = compound: Cn1cncc1[C@@](N)(c1ccc(Cl)cc1)c1ccc2c(c1)c(-c1cccc(Cl)c1)cc(=O)n2C [tipifarnib]
How it was run: as §1

[4] = compound: NC(=O)Nc1cc(-c2cccc(F)c2)sc1C(=O)N[C@H]1CCCNC1
How it was run: as §1

[5] = compound: NC(=O)c1cnc(N[C@@H]2CCCC[C@@H]2N)nc1Nc1cccc(-n2nccn2)c1
How it was run: as §1

[6] = compound: NC1(c2ccc(-c3nc4ccn5c(=O)[nH]nc5c4cc3-c3ccccc3)cc2)CCC1
How it was run: as §1

Measured: log2 fold change

ZNHIT2 (UniProt Q9UHR6)
inactive: nilotinib 0.059 | [1] -0.002 | dasatinib -0.077 | [2] 0.21 | [3] 0.016 | quisinostat -0.077 | tipifarnib 0.003 | [4] 0.073 | [5] -0.134 | [6] -0.106

ZNF92 (UniProt Q03936)
inactive: nilotinib 0.066 | [1] -0.038 | dasatinib 0.01 | [2] -0.015 | [3] 0 | quisinostat 0.142 | tipifarnib 0.046 | [4] -0.152 | [5] 0.194 | [6] -0.014

ZNF598 isoform 3 (UniProt Q86UK7)
inactive: nilotinib -0.004 | [1] -0.022 | dasatinib -0.063 | [2] 0.031 | [3] 0.032 | quisinostat -0.023 | tipifarnib -0.019 | [4] 0.01 | [5] 0.011 | [6] 0.029

ZMYM1 (UniProt Q5SVZ6)
inactive: nilotinib 0.023 | [1] -0.036 | dasatinib 0.006 | [2] -0.019 | [3] 0.007 | quisinostat -0.08 | tipifarnib -0.012 | [4] 0.03 | [5] 0.003 | [6] 0.028

ZNF277 (UniProt Q9NRM2)
inactive: nilotinib -0.046 | [1] -0.027 | dasatinib -0.016 | [2] -0.022 | [3] 0.043 | quisinostat -0.008 | tipifarnib 0.008 | [4] 0.037 | [5] -0.039 | [6] -0.026

ZNF184 (UniProt Q99676)
inactive: nilotinib -0.024 | [1] 0.074 | dasatinib 0.046 | [2] -0.041 | [3] 0.038 | quisinostat 0.059 | tipifarnib 0.08 | [4] -0.032

ZYX (UniProt Q15942)
inactive: nilotinib 0.006 | [1] -0.005 | dasatinib -0.003 | [2] -0.002 | [3] -0.048 | quisinostat 0.001 | tipifarnib 0.034 | [4] -0.009 | [5] -0.013 | [6] 0.033

ZNF768 (UniProt Q9H5H4)
inactive: nilotinib -0.028 | [1] 0.026 | dasatinib 0.021 | [2] -0.141 | [3] 0.008 | quisinostat 0.003 | tipifarnib 0.064 | [4] 0.037 | [5] 0.005 | [6] -0.019

ZNF384 (UniProt Q8TF68)
inactive: nilotinib 0.053 | [1] -0.117 | dasatinib -0.221 | [2] 0.055 | [3] 0.003 | quisinostat -0.054 | tipifarnib 0.186 | [4] -0.078 | [5] 0.199 | [6] -0.08

ZNF687 (UniProt Q8N1G0)
inactive: nilotinib -0.166 | [1] -0.09 | dasatinib -0.017 | [2] 0.017 | [3] 0.208 | quisinostat -0.016 | tipifarnib 0.109 | [4] 0.025 | [5] -0.119 | [6] 0.009

ZPR1 (UniProt O75312)
inactive: nilotinib -0.017 | [1] -0.001 | dasatinib 0.019 | [2] -0.027 | [3] -0.035 | quisinostat 0.014 | tipifarnib 0.009 | [4] -0.035 | [5] 0.012 | [6] -0.011

ZKSCAN1 (UniProt P17029)
inactive: nilotinib 0.139 | [1] -0.118 | dasatinib -0.028 | [2] 0.055 | [3] 0.031 | quisinostat -0.023 | tipifarnib 0.002 | [4] 0.045 | [5] 0.023 | [6] -0.032

ZNF451 (UniProt Q9Y4E5)
inactive: nilotinib 0.016 | [1] 0.013 | dasatinib -0.028 | [2] -0.033 | [3] 0.02 | quisinostat -0.044 | tipifarnib -0.049 | [4] 0.022 | [5] 0.044 | [6] -0.038

Two successive records from above, quoted:
ZNF384 (UniProt Q8TF68)
inactive: nilotinib 0.053 | [1] -0.117 | dasatinib -0.221 | [2] 0.055 | [3] 0.003 | quisinostat -0.054 | tipifarnib 0.186 | [4] -0.078 | [5] 0.199 | [6] -0.08

ZNF687 (UniProt Q8N1G0)
inactive: nilotinib -0.166 | [1] -0.09 | dasatinib -0.017 | [2] 0.017 | [3] 0.208 | quisinostat -0.016 | tipifarnib 0.109 | [4] 0.025 | [5] -0.119 | [6] 0.009

Further results

ZNF316 (UniProt A6NFI3)
inactive: nilotinib -0.115 | [1] 0.065 | dasatinib -0.123 | [2] -0.091 | [3] -0.035 | quisinostat -0.012 | tipifarnib -0.039 | [4] 0.029 | [5] 0.052 | [6] 0.031

ZNF512 (UniProt Q96ME7)
inactive: nilotinib -0.039 | [1] 0.053 | dasatinib -0.008 | [2] 0 | [3] 0.037 | quisinostat -0.034 | tipifarnib -0.048 | [4] 0.053 | [5] -0.026 | [6] 0.006

ZYG11B (UniProt Q9C0D3)
inactive: nilotinib 0.009 | [1] -0.013 | dasatinib 0.06 | [2] -0.009 | [3] -0.016 | quisinostat -0.153 | tipifarnib 0.004 | [4] 0.059 | [5] -0.013 | [6] -0.032

ZMPSTE24 (UniProt O75844)
inactive: nilotinib 0.03 | [1] -0.024 | dasatinib 0.029 | [2] -0.014 | [3] -0.035 | quisinostat -0.116 | tipifarnib -0.026 | [4] 0 | [5] 0.004 | [6] -0.013

ZNF346 (UniProt Q9UL40)
inactive: nilotinib -0.005 | [1] 0.02 | dasatinib -0.099 | [2] 0.021 | [3] 0.014 | quisinostat -0.014 | tipifarnib 0.015 | [4] 0.005 | [5] 0.011 | [6] 0.01

ZNF428 (UniProt M0QXZ5)
inactive: nilotinib 0.035 | [1] -0.014 | dasatinib -0.094 | [2] 0.062 | [3] -0.007 | quisinostat 0.028 | tipifarnib 0.065 | [4] 0.027 | [5] -0.052 | [6] 0.033

ZNF830 (UniProt Q96NB3)
inactive: nilotinib -0.024 | [1] -0.055 | dasatinib 0.016 | [2] 0.058 | [3] 0.037 | quisinostat -0.014 | tipifarnib 0.074 | [4] -0.053 | [5] 0.004 | [6] -0.025

ZNF579 (UniProt Q8NAF0)
inactive: nilotinib 0.042 | [1] 0.054 | dasatinib -0.075 | [2] -0.03 | [3] -0.058 | quisinostat 0.011 | tipifarnib 0.097 | [4] -0.014 | [5] -0.089 | [6] -0.003

ZNF207 isoform 2 (UniProt O43670)
inactive: nilotinib -0.07 | [1] 0.072 | dasatinib -0.038 | [2] 0.012 | [3] -0.139 | quisinostat -0.27 | tipifarnib 0.022 | [4] -0.066 | [5] -0.072 | [6] 0.028

ZNF330 (UniProt Q9Y3S2)
inactive: nilotinib 0.074 | [1] 0.072 | dasatinib -0.027 | [2] 0.114 | [3] -0.01 | quisinostat 0.206 | tipifarnib 0.001 | [4] -0.148 | [5] -0.018 | [6] -0.053

ZNF618 (UniProt B1ALC2)
inactive: nilotinib 0.039 | [1] -0.043 | dasatinib -0.126 | [2] 0.098 | [3] 0.02 | quisinostat -0.139 | tipifarnib -0.069 | [4] 0.008 | [5] 0.046

ZNF629 (UniProt Q9UEG4)
inactive: nilotinib -0.007 | [1] 0.019 | dasatinib 0.023 | [2] 0.012 | [3] 0.017 | quisinostat 0.036 | tipifarnib 0.048 | [4] -0.021 | [5] -0.033 | [6] -0.022

ZWINT (UniProt O95229)
inactive: nilotinib -0.034 | [1] 0.027 | dasatinib -0.017 | [2] 0.018 | [3] -0.005 | quisinostat -0.011 | tipifarnib 0.021 | [4] -0.017 | [5] -0.029 | [6] -0.019

ZNFX1 (UniProt Q9P2E3)
inactive: nilotinib 0.05 | [1] 0.022 | dasatinib 0.017 | [2] 0.004 | [3] 0.06 | quisinostat -0.097 | tipifarnib -0.007 | [4] 0.098 | [5] 0.006 | [6] 0.098
